Assay results taken from article doi:10.1101/2021.05.12.443731.

T1: FOSL1 (human (endogenous in Th17 cells)), P15407
T1 chain: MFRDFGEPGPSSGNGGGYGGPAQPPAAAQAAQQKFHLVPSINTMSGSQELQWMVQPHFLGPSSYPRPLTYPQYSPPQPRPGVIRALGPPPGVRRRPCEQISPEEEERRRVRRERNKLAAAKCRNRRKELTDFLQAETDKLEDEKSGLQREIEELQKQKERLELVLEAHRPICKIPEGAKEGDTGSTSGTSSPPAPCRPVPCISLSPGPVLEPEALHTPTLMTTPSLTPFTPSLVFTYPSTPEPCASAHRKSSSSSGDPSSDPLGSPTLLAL

T2: FOSL2 (human (endogenous in Th17 cells)) (UniProt P15408)
T2 sequence: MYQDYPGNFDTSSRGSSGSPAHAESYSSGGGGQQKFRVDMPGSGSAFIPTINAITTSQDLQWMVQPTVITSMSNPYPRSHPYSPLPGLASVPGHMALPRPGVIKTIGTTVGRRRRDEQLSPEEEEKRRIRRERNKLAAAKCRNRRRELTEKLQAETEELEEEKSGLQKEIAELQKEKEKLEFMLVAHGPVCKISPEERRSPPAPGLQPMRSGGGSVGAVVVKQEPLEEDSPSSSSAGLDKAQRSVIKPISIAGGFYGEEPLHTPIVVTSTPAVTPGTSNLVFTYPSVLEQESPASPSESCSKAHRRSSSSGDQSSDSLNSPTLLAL

T3: FOSL1 (human (endogenous in Th17 cells)) (UniProt P15407)
T3 sequence: T1 chain

T4: FOSL2 (human (endogenous in Th17 cells)), P15408
T4 chain: T2 sequence

B1: JUNB, P17275 1-347 (protein)
chain: MCTKMEQPFYHDDSYTATGYGRAPGGLSLHDYKLLKPSLAVNLADPYRSLKAPGARGPGPEGGGGGSYFSGQGSDTGASLKLASSELERLIVPNSNGVITTTPTPPGQYFYPRGGGSGGGAGGAGGGVTEEQEGFADGFVKALDDLHKMNHVTPPNVSLGATGGPPAGPGGVYAGPEPPPVYTNLSSYSPASASSGGAGAAVGTGSSYPTTTISYLPHAPPFAGGHPAQLGLGRGASTFKEEPQTVPEARSRDATPPVSPINMEDQERIKVERKRLRNRLAATKCRKRKLERIARLEDKVKTLKAENAGLSSTAGLLREQVAQLKQKVMTHVSNGCQLLLGVKGHAF
B2: NUFIP2 (protein, UniProt Q7Z417 1-695)
chain: MEEKPGQPQPQHHHSHHHPHHHPQQQQQQPHHHHHYYFYNHSHNHHHHHHHQQPHQYLQHGAEGSPKAQPKPLKHEQKHTLQQHQETPKKKTGYGELNGNAGEREISLKNLSSDEATNPISRVLNGNQQVVDTSLKQTVKANTFGKAGIKTKNFIQKNSMDKKNGKSYENKSGENQSVDKSDTIPIPNGVVTNNSGYITNGYMGKGADNDGSGSESGYTTPKKRKARRNSAKGCENLNIVQDKIMQQETSVPTLKQGLETFKPDYSEQKGNRVDGSKPIWKYETGPGGTSRGKPAVGDMLRKSSDSKPGVSSKKFDDRPKGKHASAVASKEDSWTLFKPPPVFPVDNSSAKIVPKISYASKVKENLNKTIQNSSVSPTSSSSSSSSTGETQTQSSSRLSQVPMSALKSVTSANFSNGPVLAGTDGNVYPPGGQPLLTTAANTLTPISSGTDSVLQDMSLTSAAVEQIKTSLFIYPSNMQTMLLSTAQVDLPSQTDQQNLGDIFQNQWGLSFINEPSAGPETVTGKSSEHKVMEVTFQGEYPATLVSQGAEIIPSGTEHPVFPKAYELEKRTSPQVLGSILKSGTTSESGALSLEPSHIGDLQKADTSSQGALVFLSKDYEIESQNPLASPTNTLLGSAKEQRYQRGLERNDSWGSFDLRAAIVYHTKEMESIWNLQKQDPKRIITYNEAMDSPDQ
B3: ADAR (protein, UniProt P55265 1-1226)
chain: MNPRQGYSLSGYYTHPFQGYEHRQLRYQQPGPGSSPSSFLLKQIEFLKGQLPEAPVIGKQTPSLPPSLPGLRPRFPVLLASSTRGRQVDIRGVPRGVHLRSQGLQRGFQHPSPRGRSLPQRGVDCLSSHFQELSIYQDQEQRILKFLEELGEGKATTAHDLSGKLGTPKKEINRVLYSLAKKGKLQKEAGTPPLWKIAVSTQAWNQHSGVVRPDGHSQGAPNSDPSLEPEDRNSTSVSEDLLEPFIAVSAQAWNQHSGVVRPDSHSQGSPNSDPGLEPEDSNSTSALEDPLEFLDMAEIKEKICDYLFNVSDSSALNLAKNIGLTKARDINAVLIDMERQGDVYRQGTTPPIWHLTDKKRERMQIKRNTNSVPETAPAAIPETKRNAEFLTCNIPTSNASNNMVTTEKVENGQEPVIKLENRQEARPEPARLKPPVHYNGPSKAGYVDFENGQWATDDIPDDLNSIRAAPGEFRAIMEMPSFYSHGLPRCSPYKKLTECQLKNPISGLLEYAQFASQTCEFNMIEQSGPPHEPRFKFQVVINGREFPPAEAGSKKVAKQDAAMKAMTILLEEAKAKDSGKSEESSHYSTEKESEKTAESQTPTPSATSFFSGKSPVTTLLECMHKLGNSCEFRLLSKEGPAHEPKFQYCVAVGAQTFPSVSAPSKKVAKQMAAEEAMKALHGEATNSMASDNQPEGMISESLDNLESMMPNKVRKIGELVRYLNTNPVGGLLEYARSHGFAAEFKLVDQSGPPHEPKFVYQAKVGGRWFPAVCAHSKKQGKQEAADAALRVLIGENEKAERMGFTEVTPVTGASLRRTMLLLSRSPEAQPKTLPLTGSTFHDQIAMLSHRCFNTLTNSFQPSLLGRKILAAIIMKKDSEDMGVVVSLGTGNRCVKGDSLSLKGETVNDCHAEIISRRGFIRFLYSELMKYNSQTAKDSIFEPAKGGEKLQIKKTVSFHLYISTAPCGDGALFDKSCSDRAMESTESRHYPVFENPKQGKLRTKVENGEGTIPVESSDIVPTWDGIRLGERLRTMSCSDKILRWNVLGLQGALLTHFLQPIYLKSVTLGYLFSQGHLTRAICCRVTRDGSAFEDGLRHPFIVNHPKVGRVSIYDSKRQSGKTKETSVNWCLADGYDLEILDGTRGTVDGPRNELSRVSKKNIFLLFKKLCSFRYRRDLLRLSYGEAKKAARDYETAKNYFKKGLKDMGYGNWISKPQEEKNFYLCPV
B4: JUN, P05412 1-331 (protein)
chain: MTAKMETTFYDDALNASFLPSESGPYGYSNPKILKQSMTLNLADPVGSLKPHLRAKNSDLLTSPDVGLLKLASPELERLIIQSSNGHITTTPTPTQFLCPKNVTDEQEGFAEGFVRALAELHSQNTLPSVTSAAQPVNGAGMVAPAVASVAGGSGSGGFSASLHSEPPVYANLSNFNPGALSSGGGAPSYGAAGLAFPAQPQQQQQPPHHLPQQMPVQHPRLQALKEEPQTVPEMPGETPPLSPIDMESQERIKAERKRMRNRIAASKCRKRKLERIARLEEKVKTLKAQNSELASTANMLREQVAQLKQKVMNHVNSGCQLMLTQQLQTF

Legend:
Experiment in all cases: affinity purification with mass spectrometry
[1] = target: T1, FOSL1 (human (endogenous in Th17 …)); details: remark: other sources report otherwise
[2] = target: T2, FOSL2 (human (endogenous in Th17 cells))
[3] = target: T3, FOSL1 (human (endogenous in Th17 cells))
[4] = target: T4, FOSL2 (human (endogenous in Th17 …)); details: remark: other sources report otherwise

Binder | binding [1] | binding [2] | binding [3] | binding [4]
B1 | binds | – | – | –
B2 | – | binds | binds | –
B3 | – | binds | binds | –
B4 | – | – | – | binds

Results are given in words; binding and its absence hold for the method and conditions named. Binding seen in cells or lysates may run through a third protein. These calls come from enrichment with a bait or labelling near it, and not all partners need be listed.
